Results reported in PubChem BioAssay AID743266 (National Center for Advancing Translational Sciences (NCATS), 2014).
The campaign covered roughly 410,000 compounds. About 310 (0.076%) were called active. The inconclusive results got no clear call from the source; some entries with a clear call stand among them for comparison. Calls follow the shape of the dose curve; as a rule, active = well fitted activation curve with a large enough effect; inconclusive = small, poorly fitted or top-dose-only effect, or another doubt; inactive = no such curve, though single readings can be large or run the other way. A potency beside an inconclusive call is a rough fit, not a confirmed value.

Chains of the proteins cited; added tags and fusions are not shown. Lines headed by an entry give the natural chain unless they say otherwise; changes in a name come on top.
UniProt Q03431: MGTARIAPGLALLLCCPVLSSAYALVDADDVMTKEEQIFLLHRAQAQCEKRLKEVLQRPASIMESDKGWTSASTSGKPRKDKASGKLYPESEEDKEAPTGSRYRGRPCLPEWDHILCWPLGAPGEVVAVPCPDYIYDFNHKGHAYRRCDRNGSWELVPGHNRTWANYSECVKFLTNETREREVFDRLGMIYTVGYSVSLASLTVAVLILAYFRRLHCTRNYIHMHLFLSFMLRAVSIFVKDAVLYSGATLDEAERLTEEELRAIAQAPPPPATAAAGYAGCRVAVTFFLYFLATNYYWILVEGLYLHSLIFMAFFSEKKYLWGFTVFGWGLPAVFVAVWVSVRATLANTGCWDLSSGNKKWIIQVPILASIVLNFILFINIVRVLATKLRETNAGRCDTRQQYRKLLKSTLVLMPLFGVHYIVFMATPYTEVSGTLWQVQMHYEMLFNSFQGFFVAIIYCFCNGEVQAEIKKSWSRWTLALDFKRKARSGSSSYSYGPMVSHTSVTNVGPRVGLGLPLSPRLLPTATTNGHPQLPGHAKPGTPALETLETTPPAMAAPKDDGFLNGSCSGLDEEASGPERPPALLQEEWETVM

These molecules were tested against Parathyroid hormone/parathyroid hormone-related peptide receptor (Homo sapiens) (UniProt Q03431) (assay: qHTS for PTHR1 Agonists: Primary Screen). Settings: HEK293 GP2 PTHR1 cells, GloSensor cAMP luminescence, 1 h; activation: at 115 µM (top of the series) unless noted; series mostly up to 115 µM.
In short: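 HEK-293-derived GP2 cells expressing PTHR1 and a GloSensor cAMP reporter, 3,000/well, plated overnight, given luciferin plus IBMX (each 0.5 mM as added) for 1 h at 37 °C, then compound for 1 h at 37 °C. Luminescence was read after 15 min at room temperature.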
Also: nearly all actives have a fitted effect of over 55% in size.
Potency is read from the fitted curve at half-maximal effect.

Potency, inconclusive:
Cc1ccc(CCNC(=O)CCn2nc(-c3ccc(Cl)cc3)ccc2=O)cc1 25.1 µM [activator, single point]
Cc1ccc(S(=O)(=O)c2cn(CC(=O)Nc3ccc4c(c3)OCO4)c3ccccc3c2=O)cc1C 39.8 µM [activator, partial curve, poor fit]
CCCOc1ccccc1C(=O)NCCCC(=O)O 10 µM [activator, partial curve, poor fit]
COCCc1ccc(OC2(C)CCN(Cc3cccn3-c3nccs3)C2)cc1 (configuration not stated) 7.08 µM [activator, full curve, poor fit]
Cc1ccc(-n2nnnc2SCC(=O)NNC(=O)c2ccco2)cc1C 31.6 µM [activator, partial curve, poor fit]
COC(=O)c1cc2ccsc2n1Cc1nc(-c2ccc(OC)cc2)oc1C 39.8 µM [activator, single point]
CC1(C(=O)NC2CCCCC2)Cc2ccccc2C(=O)N1Cc1ccc(F)cc1 (configuration not stated) 112 µM [activator, single point]
C=CCSc1nc2c(c(=O)[nH]1)C(C(C)C)C(C#N)=C(N)O2 (configuration not stated) 39.8 µM [activator, partial curve, poor fit]
CCn1nc(C(=O)OCc2c(C)noc2C)c2ccccc2c1=O 1.26 µM [activator, full curve]
Cc1cccc(OCc2nn[nH]n2)c1C 126 µM [activator, single point]
CN1CCN(c2ccc(NC(=O)c3cccs3)cc2)CC1 22.4 µM [activator, single point]
COc1ccccc1-n1c(SCC(=O)N(C)C)nnc1-c1ccco1 31.6 µM [activator, single point]
O=C(NCc1ccccc1)c1ccc2nc(CCc3ccccc3)oc2c1 141 µM [activator, single point]
CN(CCOC(=O)c1cccc(Br)c1)C(C)(C)C 7.08 µM [activator, partial curve, poor fit]
COc1ccc(-n2ccc(=O)c(C(=O)O)n2)cc1 7.94 µM [activator, full curve, poor fit]
O=C(O)Cn1c(=O)c(-c2ccccc2)nc2ccccc21 126 µM [activator, single point]
Cc1ccc(CC(=O)Nc2cc(C)ccn2)cc1 44.7 µM [activator, partial curve]
CC(C)CCn1c(=O)c2sccc2n2c(CCCC(=O)NC(C)C)nnc12 126 µM [activator, single point]

activation, inconclusive:
COc1cc(SC)ccc1C(=O)NCCNC(=O)c1nonc1N -16.4% [activator]
COCCNC(=O)c1c(NC(=O)c2cc(=O)c3cc(Cl)ccc3o2)sc2c1CCCC2 33.2% [activator]
Cc1cc(Cl)ccc1NC(=O)Nc1c(C)n(-c2ccccc2)c(=O)n1C 42.3% [activator] [at 57.5 µM]
OCC1(Cc2ccc(F)cc2)CCCN(Cc2ccc(F)cc2Cl)C1 (configuration not stated) -48% [activator]
CCCCn1c(N)c(N(CC(C)C)C(=O)c2cccc(S(=O)(=O)N3CCCCCC3)c2)c(=O)[nH]c1=O 45.8% [activator]
Cc1cccc(NC(=O)CNC(=O)N2CC(=O)Nc3ccccc32)c1C 35.9% [activator]
CCCCn1c(=O)c2oc3ccccc3c2n(CC(=O)Nc2cccc(Cl)c2C)c1=O 32.9% [activator]
COCC(=O)N1CCC(Oc2ccc(C(=O)NCCCn3cccn3)cc2)CC1 41.5% [activator]
COc1ccc(C)cc1NC(=O)NCc1cccn1Cc1ccccc1 34.2% [activator]
O=C(CCCc1c[nH]c2ccccc12)N[C@@H](Cc1c[nH]c2ccccc12)C(=O)O 32.8% [activator]
COc1ccc(NC(=O)Cn2cnc3sc(C)c(S(=O)(=O)N4CCOCC4)c3c2=O)c(OC)c1 15.9% [activator]
Cc1ccc(/C=C2\SC(=S)N(C3CCS(=O)(=O)C3)C2=O)cc1 (configuration not stated) 44% [activator]

activation, inactive:
COc1ccc(C(=O)NC(=S)NCc2ccco2)cc1OC -20.9% [at 57.5 µM]
C=C1C(=O)OC2CC1C(O)CC(C)=CCCC(C)=CC(O)CC2C (configuration not stated) -25.5%
NC(=O)c1cccc(-c2cnc(N)c(C(=O)c3cccnc3)n2)c1 8.11%
COc1ccc(C2(C)NC(=O)N(Cc3cc(Cl)cc4c3OCOC4)C2=O)cc1OC (configuration not stated) -24.6% [at 57.5 µM]
CCOC(=O)c1ccc(NC(=O)C2(c3ccc(OC)cc3)CCOCC2)cc1 -15.9% [at 57.5 µM]
Cc1cc(N2C(=O)C(O)=C(C(=O)c3ccc(C)o3)C2c2ccc([N+](=O)[O-])cc2)no1 (configuration not stated) -24.3%
CC1CCCCN1C(=O)COC(=O)C1CCN(S(=O)(=O)c2ccc(Cl)c(C(F)(F)F)c2)CC1 (configuration not stated) -33.4%
O=C(Nc1nc2ccccc2n1CCN1CCOCC1)c1ccc(COc2ccccc2Br)o1 -23%
CC1(C(=O)NCc2cccc(C(F)(F)F)c2)CCN1CCc1ccccc1 (configuration not stated) -16.6%
CCOC(=O)c1cccc(NC(=O)c2ccc3nc(Cc4ccccc4)oc3c2)c1 -6.57%
CCCOc1ccc(CSCCNC(=S)Nc2ccccc2)cc1 -7.6%

A draw from above in order of molar mass, falling:
activation, inactive:
COc1ccc(C2(C)NC(=O)N(Cc3cc(Cl)cc4c3OCOC4)C2=O)cc1OC (configuration not stated) -24.6% [at 57.5 µM]
CCOC(=O)c1cccc(NC(=O)c2ccc3nc(Cc4ccccc4)oc3c2)c1 -6.57%
C=C1C(=O)OC2CC1C(O)CC(C)=CCCC(C)=CC(O)CC2C (configuration not stated) -25.5%

Next part:

outcome, inactive:
COc1cc(NC(=O)CCc2nnc3ccc(N4CCN(c5cccc(OC)c5)CC4)nn23)cc(OC)c1
O=C(Nc1ccc2[nH]ncc2c1)c1cccc(F)c1
Cc1ccc(Sc2c(C)nn(C(=O)c3ccc(Br)cc3)c2C)cc1
COc1ccc(N2CCN(C(CNC(=O)C(=O)NCCc3ccccc3)c3cccnc3)CC2)cc1 (configuration not stated)
CC1Cc2ccccc2N1c1ncnc2c1nnn2Cc1ccccc1 (configuration not stated) inactive [at 57.5 µM]
O=C1CCN2C=Nc3cccc4ccc1c2c34
